In paper PMC5349851, “Combinatorial bZIP dimers display complex DNA-binding specificity landscapes”:
The comparison behind a weaker result is the experiment's own reference, which may not be listed here. For part of these data: Protein sequences can lack the tags named with them. For part of these data: Construct, isoform or probe ends are uncertain for at least one entry. For part of these data: At least one verdict rests on a figure or table, not on a statement of the authors.

The chains behind the UniProt entries cited, without tags or fusion partners. Residues count along the entry.
UniProt P49715, 273-345: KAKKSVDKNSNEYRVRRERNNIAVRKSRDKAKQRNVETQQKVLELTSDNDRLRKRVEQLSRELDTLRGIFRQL

Columns and labels:
Test in all cases: EMSA-FRET
[1] = molecular target: T1, CEBPG (human) (UniProt P53567); details: homodimer; EMSA-FRET: 50 nM each labeled protein, 10 nM DNA, 50 mM potassium phosphate pH 7.4, 150 mM KCl, 0.1% BSA, 0.1% Tween-20, 5 ng/ul poly(dI-dC), 0.5 mM TCEP; recombinant protein; label: 5' TYE 665
T1 sequence: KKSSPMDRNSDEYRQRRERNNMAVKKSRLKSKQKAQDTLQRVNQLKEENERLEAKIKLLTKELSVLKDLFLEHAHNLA

[2] = molecular target: T2, ATF3 (human) (UniProt P18847); details: homodimer, EMSA-FRET: 50 nM each labeled protein, 10 nM DNA, 50 mM potassium phosphate pH 7.4, 150 mM KCl, 0.1% BSA, 0.1% Tween-20, 5 ng/ul poly(dI-dC), 0.5 mM TCEP, recombinant protein, label: 5' TYE 665
T2 sequence: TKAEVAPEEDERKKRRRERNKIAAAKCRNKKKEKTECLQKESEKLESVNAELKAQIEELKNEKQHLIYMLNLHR

[3] = molecular target: CEBPA (human) (UniProt P49715); details: homodimer, weaker or no binding; EMSA-FRET: 50 nM each labeled protein, 10 nM DNA, 50 mM potassium phosphate pH 7.4, 150 mM KCl, 0.1% BSA, 0.1% Tween-20, 5 ng/ul poly(dI-dC), 0.5 mM TCEP; recombinant protein; label: 5' TYE 665
[4] = molecular target: T3, BATF3 (human) (UniProt Q9NR55); details: homodimer, weaker or no binding; EMSA-FRET: 50 nM each labeled protein, 10 nM DNA, 50 mM potassium phosphate pH 7.4, 150 mM KCl, 0.1% BSA, 0.1% Tween-20, 5 ng/ul poly(dI-dC), 0.5 mM TCEP; recombinant protein; label: 5' TYE 665
T3 sequence: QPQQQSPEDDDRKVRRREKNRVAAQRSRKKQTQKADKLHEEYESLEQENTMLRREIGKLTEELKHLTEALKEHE

Row | Sequence | binding result [1] | binding result [2] | binding result [3] | binding result ([2]; weaker or no binding) | binding result [4]
1 | GAGTCCATGACGCAATCCGTAG (double strand) [CRE/CAAT] | binds more weakly | binds more weakly |  |  | 
2 | GAGTCCATGAGCAATCCGTAG (double strand) [AP1/CAAT (TRE-CAAT)] |  |  | binds more weakly | binds more weakly | 
3 | GAGTCCGCCACGCAATCCGTAG (double strand) [CREA/CAAT (CRE-L-CAAT)] |  |  | binds more weakly |  | binds more weakly
